This is one part of the list. Shown are side measurements of this screen, not its main read-out; they come without a call. Most of these compounds were active or inconclusive in the main read-out, so they are no random draw. Potencies come from curve fits of mixed quality, noted in brackets.

Experimental findings from PubChem BioAssay AID2685 (National Center for Advancing Translational Sciences (NCATS), 2010) are described below.

This test can be described thus: qHTS Assay for Lipid Storage Modulators in Drosophila S3 Cells.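 As to cell number change: cells counted by Cell Tracker Red CMTPX staining in the red channel.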 The conditions noted are these: BODIPY lipid droplet fluorescence, 18-24 h; for cell number change: measured here: cell count max response, cells fed with added oleic acid. The method, boiled down:
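Drosophila S3 cells got compounds at several concentrations plus oleic acid (400 uM solution). Laser-scanning cytometry with 488 nm excitation read lipid droplets at 500-530 nm and cells at 575-640 nm. Percent activity was relative to 20 uM Triacsin C.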
Background: Quantitative high-throughput screening tests each substance at several concentrations.

[1] abbreviates: measured here: lipid fluorescence (Fed channel) AC50, cells fed with added oleic acid.
Where [2] appears, read: measured here: cell number channel AC50, cells fed with added oleic acid.

Take `O=C1C=C(c2ccccc2)C[C@@H](c2ccc(Cl)cc2)C1`: the cell number change is -15.2%. Besides, under setting [1], the AC50 (usually the concentration giving half of the maximal activity seen) was 29.1 µM [rising, single point].
Consider `O=C(CCl)Nc1ccc(-c2ccccc2)cc1`, for which the cell number change was -34.4%. Besides, under setting [2], the AC50 is 0.651 µM [falling, full curve]. For the same compound, the AC50 under setting [1] was 0.58 µM [falling, full curve].
Take `COc1cccc(/C=C2\Oc3cc(OCC(=O)N4CCC[C@H]4C(=O)O)ccc3C2=O)c1`: the cell number change amounted to 23.3%. Further, under setting [1], the AC50 was 29.1 µM [rising, single point].
For `CCn1c(O)c(N=NC(=O)c2cccc(S(=O)(=O)N3CCCCC3)c2)c2ccccc21`, the cell number change was -15.6%. In addition, the AC50 under setting [1] was 29.1 µM [falling, single point].
With `Cc1cc(-c2[nH]nc3c2C(c2cccc(O)c2)C(C#N)=C(N)O3)c(C)s1` (stereo not drawn), the cell number change was 4.2%. Besides, the AC50 under setting [1] was 2.91 µM [rising, full curve, poor fit].
Consider `COC(=O)C1CCN(C(=O)CN2C(=O)NC(CCc3ccccc3)C2=O)CC1` (stereo not drawn), for which the cell number change was found to be 9.69%. Moreover, the AC50 under setting [1] is 0.184 µM [falling, full curve, poor fit].
Take `Nc1nc(SCC(=O)Nc2cc(-c3ccccc3)nn2-c2ccccc2)n[nH]1`: the AC50 under setting [2] is 0.184 µM [rising, full curve] and the AC50 under setting [1] is 0.411 µM [rising, full curve].
For `COc1ccc(CCNC(=O)c2ccc(N(C)S(=O)(=O)c3ccc(C)cc3)cc2)cc1OC`, the cell number change was -49.2%. Also, the AC50 under setting [2] is 10.3 µM [falling, partial curve]. In addition, the AC50 under setting [1] was 10.3 µM [falling, partial curve].
As to `CCCc1nnc(SCC(=O)Nc2cc(C)on2)n1CCOC`, the AC50 under setting [1] is 5.8 µM [rising, partial curve, poor fit].
For `CCN(CC)CCCN=Cc1c(O)n(-c2ccc(C)cc2)c(=O)c2ccccc12`, the cell number change was determined as 1.49%. The AC50 under setting [1] was 0.731 µM [falling, full curve, poor fit].
As for `Cc1cccc(Oc2ccccc2NC(=O)CN2C(=O)NC3(CCCC3)C2=O)c1`, the cell number change was found to be 20.9%.
Turning to `CC(=O)Nc1ccc(N2C(=O)CSC2c2ccccc2[N+](=O)[O-])cc1` (stereo not drawn), the cell number change was -28.5%. The AC50 under setting [2] was 0.00731 µM [falling, full curve, poor fit].
With `CS(=O)(=O)N(CC(=O)N1CCc2ccccc2C1)c1cccc(F)c1`, the cell number change stood at 16.8%. Under setting [2], the AC50 is 0.326 µM [rising, full curve, poor fit]. The AC50 under setting [1] is 0.259 µM [falling, full curve].
Take `CCN(CC)CCN(C(=O)c1ccc(S(=O)(=O)N2CCOCC2)cc1)c1nc2cc3c(cc2s1)OCCO3`: the cell number change was 24%. Also, the AC50 under setting [1] is 16.4 µM [rising, partial curve, poor fit].
On to `CC1CCCCN1Cc1ccc(N(C)C)cc1` (stereo not drawn), for which the cell number change was -32.2%. Moreover, the half-maximal activity concentration (AC50) under setting [2] was 29.1 µM [falling, single point]. Besides, under setting [1], the AC50 is 16.4 µM [falling, single point].
As for `CCC(C)[C@H](NC(=O)NCc1ccco1)C(=O)OC` (stereo partly drawn), the cell number change was -44.1%. Under setting [2], the AC50 is 23.1 µM [falling, single point]. For the same compound, the AC50 under setting [1] is 29.1 µM [falling, single point].
For `O=c1c2ccccc2sn1-c1cc(S(=O)(=O)N2CCOCC2)ccc1N1CCCC1`, the cell number change was -88%. For the same compound, the AC50 under setting [2] was 7.31 µM [falling, partial curve].
For `COc1cccc(C(=O)NCCS(=O)(=O)NCc2ccccn2)c1`, the cell number change was 36.7%. In addition, the AC50 under setting [2] was 29.1 µM [rising, single point]. Besides, under setting [1], the AC50 is 29.1 µM [rising, single point].
As for `O=C(Cn1ccc(C(F)(F)F)n1)NNC(=O)c1ccco1`, the cell number change stood at 16.4%. Besides, under setting [1], the AC50 was 6.51 µM [rising, partial curve, poor fit].
In the case of `CC(C)Cn1c(N)c(C(=O)NCC2CCCO2)c2nc3ccccc3nc21` (stereo not drawn), the cell number change was -37.3%. The half-maximal activity concentration (AC50) under setting [2] is 13 µM [falling, partial curve]. Under setting [1], the AC50 was 16.4 µM [falling, partial curve].
Turning to `Cc1ccc(N(CCC(=O)O)S(=O)(=O)c2ccccc2)cc1`, the cell number change is -5.8%. The AC50 under setting [1] is 2.06 µM [rising, partial curve, poor fit].
On to `CCCCCc1c(C)nc(N2CCN(Cc3ccc4c(c3)OCO4)CC2)[nH]c1=O`, for which the cell number change is -25%.
On to `Oc1ccc(C[C@@H]2CNCCN2CCC23CC4CC(CC(C4)C2)C3)cc1`, for which the cell number change is -25.3%. Further, the AC50 under setting [2] was 0.184 µM [falling, full curve, poor fit]. In addition, under setting [1], the AC50 was 0.184 µM [falling, full curve, poor fit].
`Cc1c(C(=O)c2cccc([N+](=O)[O-])c2)c2ccccn2c1CCC#N`: the cell number change was 9.49%. For the same compound, the AC50 under setting [1] was 0.651 µM [rising, single point].
For `COc1ccc(OC)c(CN(CCN2CCOCC2)C(=O)Nc2ccccc2)c1`, the AC50 under setting [1] is 0.517 µM [rising, full curve, poor fit].
With `CCOc1ccc(CCNC(=O)Nc2ccccc2C)cc1OCC`, the cell number change was -38%. Besides, the AC50 under setting [2] is 18.4 µM [falling, single point].
With `Cc1c(C(=O)Nc2ccccc2C(=O)N2CCCC2)cccc1[N+](=O)[O-]`, under setting [2], the AC50 was 6.51 µM [falling, single point].
Regarding `CCCCOC(=O)C1=C(C)NC2=C(C(=O)CCC2)C1c1cc(OC)ccc1OC` (stereo not drawn), the cell number change was found to be 5.36%. In addition, the AC50 under setting [1] was 0.058 µM [rising, full curve].
For `CCN(CC)S(=O)(=O)c1ccc(O)c(C(=O)OCC(=O)Nc2ccc(OC(F)(F)F)cc2)c1`, under setting [2], the AC50 was 5.8 µM [rising, single point].
For the compound `COc1cc2c(cc1NC(=O)/C=C/c1ccc([N+](=O)[O-])cc1)oc1ccccc12`, the cell number change is -1.58%.
For the compound `COc1ccc(N(C)S(=O)(=O)c2cccc(C(=O)Nc3nc(C)cs3)c2)cc1`, the cell number change was -20.2%. The AC50 under setting [1] is 3.66 µM [falling, partial curve].
For the compound `CC(C)C1=Nc2cccc3cccc(c23)N1`, the cell number change is -20.1%. The AC50 under setting [1] was 3.26 µM [falling, full curve, poor fit].
Turning to `COC(=O)c1ccc(COC(=O)CNC(=O)c2cccc(OC)c2)o1`, the cell number change is 8.65%. The AC50 under setting [1] was 4.61 µM [rising, single point].
For the compound `C=CCn1c(SCC(=O)NC(=O)NCC(C)C)nnc1C1CCCCC1`, the cell number change turned out to be 3.59%.
For `CCOC(=O)c1cnn(-c2ccccc2)c1NC(=O)CCl`, the cell number change amounted to 5.89%.
Turning to `O=C(/C=C/Nc1ccc([N+](=O)[O-])cc1Br)c1cccc2ccccc12`, the cell number change is 1.87%.
Regarding `Cc1noc(C)c1COc1ccc(C(=O)OCC(=O)Nc2c(C)n(C)n(-c3ccccc3)c2=O)cc1`, the cell number change came out at 146%. Further, under setting [2], the AC50 is 23.1 µM [rising, partial curve]. The AC50 under setting [1] is 23.1 µM [rising, partial curve].
As to `Cc1cc(OC(F)F)ccc1NC(=S)NC1CCCC1`, the cell number change worked out at 24.4%. Further, the concentration at half-maximal activity (AC50) under setting [2] is 2.31 µM [rising, partial curve, poor fit]. The AC50 under setting [1] was 0.103 µM [rising, full curve, poor fit].
In the case of `CCCCCn1c(=O)c(F)cn(Cc2ccc(OC)c([N+](=O)[O-])c2)c1=O`, the cell number change is -23.2%.
Consider `CC(=O)c1ccc(N2CCN(C(=O)CN3C(=O)NC4(CCCCC4)C3=O)CC2)c(F)c1`, for which the cell number change was -12.6%. The AC50 under setting [1] was 25.9 µM [falling, partial curve, poor fit].
As for `COc1ccccc1N1CCN(C(=O)CSc2nc(C)c(C)c(=O)[nH]2)CC1`, the cell number change is -8.53%. Further, under setting [1], the half-maximal activity concentration (AC50) was 2.06 µM [falling, partial curve].
With `Cc1nn(Cc2ccccc2)c(C)c1NC(=O)c1ccc([N+](=O)[O-])cc1[N+](=O)[O-]`, the cell number change amounted to 0.445%. Under setting [2], the half-maximal activity concentration (AC50) is 0.82 µM [falling, single point].
For `Cc1cc(C)nc(N2CCCC(C(=O)Nc3ccc4c(c3)OCCO4)C2)n1` (stereo not drawn), the cell number change stood at 24.6%. Moreover, the AC50 under setting [1] is 4.11 µM [rising, single point].
Turning to `COc1ccc(/C=C\C(=O)NCc2ccc3c(c2)cc(C)n3C)cc1OC`, the cell number change was -7.23%. Under setting [1], the AC50 was 0.0058 µM [falling, full curve, poor fit].
For the compound `O=C(Nc1cccc(F)c1)c1cc(S(=O)(=O)NCCC2=CCCCC2)ccc1F`, the cell number change is -30.7%. Further, under setting [2], the AC50 was 9.2 µM [falling, partial curve, poor fit].
As to `CCc1cc(=O)oc2cc3occ(C)c3cc12`, under setting [1], the AC50 is 1.84 µM [rising, full curve].
Take `COc1ccc(-n2ccnc(SCC(=O)NCc3ccc(C)cc3)c2=O)cc1Cl`: the cell number change stood at 50%. Also, the AC50 under setting [2] was 29.1 µM [rising, single point]. The AC50 under setting [1] is 5.8 µM [falling, full curve].
Turning to `COc1ccc(NC(=O)c2cccnc2N2CCCCC2)cc1`, the cell number change is -30.3%. Under setting [2], the AC50 was 20.6 µM [falling, single point]. In addition, the AC50 under setting [1] was 29.1 µM [falling, single point].
On to `CCCn1c(=O)c(C(=O)NCCc2ccc(Cl)cc2)c(O)c2ccccc21`, for which the cell number change is -18.8%.
Regarding `COc1ccc(C(O)P(=O)(OC(C)C)OC(C)C)cc1OC` (stereo not drawn), the cell number change came out at 0.281%. The AC50 under setting [1] is 0.164 µM [rising, full curve, poor fit].
On to `Cc1nc2sccn2c(=O)c1S(=O)(=O)Nc1ccc(N2CCN(C)CC2)cc1`, for which the cell number change was -6.34%. Moreover, under setting [1], the AC50 is 0.517 µM [falling, single point].
Regarding `CC(=O)c1ccc(NC(=O)Nc2ccc(S(=O)(=O)N3CCCC3)cc2)cc1`, the AC50 under setting [1] is 11.6 µM [falling, partial curve].
In the case of `COC(=O)CS(=O)(=O)c1cccc2cccnc12`, the cell number change is -15.6%. Also, the half-maximal activity concentration (AC50) under setting [1] is 4.11 µM [falling, single point].
For `Cc1cccc(C(=O)O/N=C(\N)Cc2ccc([N+](=O)[O-])cc2)c1`, the cell number change is 4.13%. Further, the AC50 under setting [1] is 2.31 µM [rising, partial curve].
As for `COc1ccc(-c2cc(-c3nnc(COC(=O)c4ccc(O)cc4)o3)c3ccccc3n2)cc1OC`, the cell number change worked out at 29.2%. Moreover, the AC50 under setting [1] was 0.651 µM [rising, full curve, poor fit].
On to `COc1ccc(NC(=O)CN(C)C(=O)C(C)Oc2ccc(Br)cc2)cc1` (stereo not drawn), for which the cell number change worked out at 30.8%. In addition, the AC50 under setting [2] was 14.6 µM [rising, single point].
Take `CCCC(=O)Nc1nc(-c2ccc(Cl)s2)cs1`: the cell number change is -33%. Also, under setting [2], the AC50 is 2.91 µM [falling, partial curve, poor fit]. Moreover, the AC50 under setting [1] is 5.17 µM [falling, single point].
